Laboratory results published in patent CN113234160A.
These are yes or no findings as the source states them, for the method shown. Some entries that bind do so weakly or less than the wild type.

Chains of the proteins cited; added tags and fusions are not shown. Lines headed by an entry give the natural chain unless they say otherwise; changes in a name come on top. Residues count along the entry.
UniProt Q15116: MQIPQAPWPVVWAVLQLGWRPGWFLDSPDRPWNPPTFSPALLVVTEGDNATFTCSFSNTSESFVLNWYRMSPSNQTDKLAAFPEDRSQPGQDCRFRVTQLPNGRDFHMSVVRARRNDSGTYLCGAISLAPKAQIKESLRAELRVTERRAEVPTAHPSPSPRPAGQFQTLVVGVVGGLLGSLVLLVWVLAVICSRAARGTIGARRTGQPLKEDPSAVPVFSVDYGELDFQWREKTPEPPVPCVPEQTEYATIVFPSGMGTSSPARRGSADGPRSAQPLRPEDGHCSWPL
人PD-1抗原 on Jurkat/PD-1 cells: residues 25-288 of Q15116
人PD-1抗原 (ACRO, Cat.PD-1-H5221): residues 25-167 of Q15116

Key:
[1] = target: 人PD-1抗原 (ACRO, Cat.PD-1-H5221) (human) (UniProt Q15116); experiment: indirect ELISA, human PD-1 coated
[2] = target: 人PD-1抗原 on Jurkat/PD-1 cells (human) (UniProt Q15116); experiment: indirect flow cytometry on Jurkat/PD-1 cells
[3] = target: 人PD-1抗原 (ACRO, Cat.PD-1-H5221) (human) (UniProt Q15116); experiment: summary of flow cytometry and ELISA, against the mouse parent mp148

Measured: binding

B1: hmp148 (antibody, V domains shown)
VH: EVQLVESGGGLVKPGGSLRLSCAASGFTFSSYDMSWVRQAPGKRLEWVATISGGGSYTYYPDSVKGRFTISRDNAKNSLYLQMNSLRTEDTAVYYCASPYEGYFDVWGQGTTVTVSS
VL: DIQMTQSPSSLSVTPGEKVTITCRASQSISNNIHWYQQKPGQSPKLLIKYASQSISGIPSRFSGSGSGTDFTLTINSLEAEDAATYFCQQSNSWPHTFGGGTKVEIK
binds: all assays above
